Plain letter strings leave the end groups untold. One purity is given for all peptides; the source may state it once. Non-standard residues stand in square brackets, D forms with d. *: point of attachment. X1 = CN1CC[C@]23c4c5ccc(O)c4O[C@H]2[C@@H](O[C@@H]2O[C@H](C(=O)NCCS*)[C@@H](O)[C@H](O)[C@H]2O)C=C[C@H]3[C@H]1C5; Mpa = O=C(O)CCS
Test: general procedure: Fmoc solid-phase peptide synthesis
Details: analytical HPLC and mass spectrometry

Substance | final HPLC purity (whole synthesis) [%] | final HPLC purity (conjugation step) [%]
RRLSYSRRRF | >95 | 
[Mpa](X1)RRLSYSRRRF-OH (C-terminus assumed; SMILES CC(C)C[C@H](NC(=O)[C@H](CCCNC(=N)N)NC(=O)[C@H](CCCNC(=N)N)NC(=O)CCSSCCNC(=O)[C@H]1O[C@@H](O[C@H]2C=C[C@H]3[C@H]4Cc5ccc(O)c6c5[C@@]3(CCN4C)[C@H]2O6)[C@H](O)[C@@H](O)[C@@H]1O)C(=O)N[C@@H](CO)C(=O)N[C@@H](Cc1ccc(O)cc1)C(=O)N[C@@H](CO)C(=O)N[C@@H](CCCNC(=N)N)C(=O)N[C@@H](CCCNC(=N)N)C(=O)N[C@@H](CCCNC(=N)N)C(=O)N[C@@H](Cc1ccccc1)C(=O)O) |  | >95

Source: patent US20040248806A1 (priority 2001, published 2004)
